Data as given in paper PMC9735595, “Advanced EPI-X4 Derivatives Covalently Bind Human Serum Albumin Resulting in Prolonged Plasma Stability” (International Journal of Molecular Sciences, 2022).
No constants are given. Whether binding was seen depends on the method and setting. Some results given as binding are weak or reduced against the parent protein; the word gives no strength.

The chains behind the UniProt entries cited, without tags or fusion partners. Residues count along the entry.
UniProt P02768, residues 25-609: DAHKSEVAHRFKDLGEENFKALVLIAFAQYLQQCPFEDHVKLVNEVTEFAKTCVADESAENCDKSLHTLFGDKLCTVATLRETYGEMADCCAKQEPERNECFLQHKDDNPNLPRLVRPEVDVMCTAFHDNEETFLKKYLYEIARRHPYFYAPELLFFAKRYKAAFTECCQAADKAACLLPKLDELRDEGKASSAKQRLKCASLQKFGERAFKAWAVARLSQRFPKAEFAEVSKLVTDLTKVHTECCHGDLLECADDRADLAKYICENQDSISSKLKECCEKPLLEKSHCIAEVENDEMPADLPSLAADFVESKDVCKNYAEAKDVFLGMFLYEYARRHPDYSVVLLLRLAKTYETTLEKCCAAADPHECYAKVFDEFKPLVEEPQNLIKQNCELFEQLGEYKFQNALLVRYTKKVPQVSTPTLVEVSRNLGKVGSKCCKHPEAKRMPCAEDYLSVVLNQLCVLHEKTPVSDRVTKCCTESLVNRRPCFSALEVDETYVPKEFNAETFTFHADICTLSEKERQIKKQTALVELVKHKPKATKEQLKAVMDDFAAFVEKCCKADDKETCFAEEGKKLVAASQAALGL
UniProt P61073: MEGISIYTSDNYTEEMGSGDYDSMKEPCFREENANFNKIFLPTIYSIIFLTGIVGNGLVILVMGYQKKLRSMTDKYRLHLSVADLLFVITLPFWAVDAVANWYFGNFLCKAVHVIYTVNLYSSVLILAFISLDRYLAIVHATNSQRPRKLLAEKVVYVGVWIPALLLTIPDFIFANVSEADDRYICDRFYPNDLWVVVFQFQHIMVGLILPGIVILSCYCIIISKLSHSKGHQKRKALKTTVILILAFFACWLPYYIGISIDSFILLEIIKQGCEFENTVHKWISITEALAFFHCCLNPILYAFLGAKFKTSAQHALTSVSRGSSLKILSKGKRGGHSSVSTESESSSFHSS

Key:
[1] = molecular target: human serum albumin (human) (UniProt P02768); experiment: condition: only after reduction + carbamidomethylation of the digest; LC-MS/MS of a tryptic digest (disulfide-linked fragments); human plasma spiked with peptide, digested with trypsin (50:1) 16 h at 37 degrees; half of the digest reduced and carbamidomethylated as control; only the binder purified
[2] = molecular target: C-X-C chemokine receptor type 4 (human (endogenous in SupT1)) (UniProt P61073); experiment: flow cytometry on cells; competition with APC-labeled antibody 12G5 (ECL2 of CXCR4) on SupT1 cells; serial dilution of compound in PBS with a constant concentration of antibody, 2 h at 4 °C; only the binder purified
[3] = molecular target: C-X-C chemokine receptor type 4 (human (endogenous in SupT1)) (UniProt P61073); experiment: flow cytometry on cells; compound dissolved at 20 µM in 100% human plasma, incubated at 37 °C, aliquots serially diluted in ice-cold PBS, then competition with antibody 12G5 on SupT1 cells
[4] = molecular target: human serum albumin (human) (UniProt P02768); experiment: LC-MS/MS of a tryptic digest (disulfide-linked fragments); human plasma spiked with peptide, digested with trypsin (50:1) 16 h at 37 degrees; half of the digest reduced and carbamidomethylated as control; only the binder purified
[5] = molecular target: human serum albumin (human) (UniProt P02768); experiment: SEC; size-exclusion HPLC (Yarra SEC-2000) of human plasma spiked with peptide after 10 min at 37 °C; 25 mM NaH2PO4 + 25 mM Na2HPO4 + 250 mM KCl, pH 6.65; fractions treated with DTT + GuHCl and peptide detected by mass spectrometry; HSA and free peptides run as references; only the binder purified

Row | binding [1] | binding [2] | binding [3] | binding [4] | binding [5] | Binder
1 |  | binds |  |  |  | ILRWSRKLPCVS (carbamidomethylated Cys at position 10) [EPI-X4 JM#21 Cdm]
2 | no binding | binds | binds | binds | binds | ILRWSRKLPCVS [EPI-X4 JM#21]
3 |  | binds |  |  |  | IVRWSKKVPCVS (carbamidomethylated Cys at position 10) [EPI-X4 WSC02 Cdm]

Continued, binder first:

Row | Binder | binding [1] | binding [2] | binding [3] | binding [4] | binding [5]
4 | IVRWSKKVPCVS [EPI-X4 WSC02] | no binding | binds | binds | binds | binds
5 | IVRWSKKVPSVS [EPI-X4 WSC02 C10S] |  | binds |  |  | 
6 | ILRWSRKLPSVS [EPI-X4 JM#21 C10S] |  | binds |  |  | 
